Measurements published in PubChem BioAssay AID493014 (National Center for Advancing Translational Sciences (NCATS), 2011).
This is one part of the list. The main result of the screen is listed elsewhere. These columns were measured beside it and carry no call. Compounds called inactive in the main read-out are mostly missing here. Words in brackets tell the shape of the fitted curve; partial curves, single points and poor fits give uncertain potencies.

Assay: qHTS Assay to Find Inhibitors of Chronic Active B-Cell Receptor Signaling
Conditions: ABC-DLBCL IkBa-CBG/CBR reporter, luminescence ratio (green luciferase fused to IkBa over red control in TMD8 lymphoma cells), 4 h
Summary of the method: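 TMD8 ABC-DLBCL cells carrying doxycycline-inducible green luciferase fused to IkappaBalpha plus unfused red luciferase were exposed to compounds (up to 46 uM) for 4 hrs at 37C. Activity came from the overlap-corrected green/red luminescence ratio.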

[1] = measured here: CBR red luminescence, cell number
[2] = measured here: IkBa-CBG green luminescence

Row | Compound | AC50 [1] | AC50 [2]
1 | CCOC(=O)c1c(C)n(OC)c2ccc3c(no[n+]3[O-])c12 | 0.517 µM [falling, full curve, poor fit] | 
2 | CC1Sc2ccc(S(=O)(=O)N3CCN(c4ccccc4)CC3)cc2NC1=O (stereo not given) | 10 µM [falling, partial curve] | 
3 | CCOC(=O)c1cnc2c(c(C)nn2C)c1Oc1ccc(Cl)cc1 | 11.6 µM [falling, partial curve, poor fit] | 
4 | COc1ccc(S(=O)(=O)N2CCCCCC2)cc1C(=O)N(C)Cc1ccco1 | 1.3 µM [rising, full curve, poor fit] | 
5 | O=C(NCc1ccc(F)cc1)c1cccc2c1C(=O)c1ccc(N3CCC(Cc4ccccc4)CC3)cc1S2(=O)=O | 9.2 µM [rising, partial curve, poor fit] | 
6 | CC(Oc1ccc(Br)cc1)c1nc2c3ccccc3nc(=S)n2[nH]1 (stereo not given) | 4.47 µM [rising, full curve, poor fit] | 0.631 µM [falling, partial curve, poor fit]
7 | CCN1CCN(S(=O)(=O)c2ccc3c4c(cccc24)C(=O)N3CC)CC1 | 29.1 µM [rising, single point] | 
8 | Cc1cccc(NC(=O)c2ccccc2NC(=O)c2ccccc2)n1 | 7.94 µM [falling, partial curve, poor fit] | 
9 | COC(=O)c1c(N2C(=O)CC(Sc3ccccc3C(=O)O)C2=O)sc(C)c1C (stereo not given) | 2.51 µM [falling, full curve] | 
10 | Nc1nnc(SCC(=O)Nc2ccc3c(c2)OCCO3)s1 | 1.84 µM [falling, full curve] | 
11 | O=C(O)C1CCCCC1C(=O)Nc1nc(-c2ccc(Cl)s2)cs1 (stereo not given) | 14.1 µM [falling, partial curve, poor fit] | 
12 | CCC(C)(C)NC(=O)C(c1cccnc1)N(C(=O)c1csnn1)c1ccccc1 (stereo not given) | 0.891 µM [falling, full curve, poor fit] | 
13 | COc1cc(NC(=O)c2cccs2)c(C(=O)OCC(=O)NC(=O)NC(C)(C)C)cc1OC | 0.259 µM [falling, full curve, poor fit] | 
14 | O=c1c(Cl)cc(Cl)nn1-c1ccccc1 | 23.1 µM [falling, partial curve] | 
15 | Fc1ccccc1/C=N/Nc1nc2ccccc2o1 | 8.91 µM [falling, partial curve, poor fit] | 
16 | Cc1cc(NC(=O)COc2ccccc2)n(-c2ccccc2)n1 | 7.94 µM [falling, partial curve] | 
17 | COc1cc(CNc2ccc(N3CCN(C(C)=O)CC3)cc2)ccc1OCc1ccccc1 | 0.355 µM [rising, full curve, poor fit] | 
18 | NC(=O)CC(NC(=O)c1cccc(Br)c1)c1ccc(NC2CCCCCCCCCCC2)c([N+](=O)[O-])c1 (stereo not given) | 0.1 µM [falling, full curve, poor fit] | 
19 | CC(C)(C)Nc1nc(-c2ccccn2)nc2ccccc12 | 12.6 µM [falling, partial curve, poor fit] | 

Row | Compound | AC50 [1] | AC50 [2]
20 | NNC(=O)c1ccc(Cn2cc(Cl)cn2)o1 | 3.16 µM [falling, partial curve, poor fit] | 
21 | CC1=NN(c2ccc(C(=O)O)cc2)C(=O)/C1=C\c1ccc(OC(=O)c2cccs2)cc1 | 1.12 µM [falling, full curve] | 
22 | O=Cc1c(-[n+]2ccccc2)nc([O-])n1-c1ccccc1 | 4.61 µM [rising, partial curve, poor fit] | 
23 | O=C(CSc1nnc(C2CC2)n1CC1CCCO1)Nc1cccc(Cl)c1 (stereo not given) | 6.31 µM [rising, single point] | 
24 | C[C@@H]1C[C@H]2[C@@H]3C[C@H](F)C4=CC(=O)C=C[C@]4(C)[C@@]3(F)[C@@H](O)C[C@]2(C)[C@@]1(O)C(=O)COC(=O)C(C)(C)C | 16.4 µM [rising, partial curve, poor fit] | 
25 | O=C(O)CCCCc1nc2ccccc2s1 | 5.17 µM [rising, partial curve] | 
26 | Cc1ccc(C)c(NS(=O)(=O)c2cc(Br)cnc2N)c1 | 15.8 µM [falling, partial curve, poor fit] | 
27 | COc1cccc(NC(=O)CN(C)C(=O)CC2CCCCC2)c1 | 5.17 µM [rising, partial curve, poor fit] | 
28 | O=[N+]([O-])c1ccc2nc(-c3ccc(Cl)cc3)[nH]c2c1 | 23.1 µM [falling, partial curve] | 25.9 µM [rising, partial curve, poor fit]
29 | CC12CCC(C(=O)NCc3ccccc3Cl)(C(Br)C1=O)C2(C)C (stereo not given) | 29.1 µM [rising, partial curve, poor fit] | 
30 | CC(=O)c1sc(NC(=O)c2cnc(Cl)c(Cl)c2)nc1C | 4.47 µM [falling, full curve, poor fit] | 
31 | COCCCNCC(=O)Nc1sc(C)c(C)c1C(=O)OC | 29.1 µM [falling, single point] | 
32 | Cn1c(=O)cc(OCCCC(=O)NCCC2=CCCCC2)c2ccccc21 | 5.01 µM [rising, full curve, poor fit] | 
33 | Cn1c2ccccc2c2cc(/C=N/NC(=O)c3ccc(N)cc3)ccc21 | 3.55 µM [falling, partial curve, poor fit] | 
34 | CC(=O)[C@@H]1[C@@H]2C(=O)N(c3ccc(F)c(Cl)c3)C(=O)[C@@H]2C2c3ccccc3C=CN21 (stereo not given in full) | 6.51 µM [falling, partial curve] | 
35 | O=C(N/N=C/c1cccc([N+](=O)[O-])c1)c1c[nH]c2ccccc12 | 1.26 µM [rising, partial curve] | 
36 | Cc1nn(-c2ccccc2)c(/N=C/c2ccc(O)cc2)c1-c1ccccc1 | 29.1 µM [falling, single point] | 
37 | CCN1N=C(C)C=C(c2ccccc2)n2c1nc1ccccc12 |  | 7.08 µM [rising, partial curve, poor fit]
38 | O=C(NCCc1ccccc1)c1ccc2c(c1)N(Cc1ccccc1Cl)C(=O)c1ccccc1S2 | 0.562 µM [rising, full curve, poor fit] | 

Exported field by field: entries from further up
NNC(=O)c1ccc(Cn2cc(Cl)cn2)o1
  AC50 [1]: 3.16 µM [falling, partial curve, poor fit]
O=Cc1c(-[n+]2ccccc2)nc([O-])n1-c1ccccc1
  AC50 [1]: 4.61 µM [rising, partial curve, poor fit]
